Data: the supplement of paper PMC8728848
This is one part of the list.

Experiments:
Assay in all cases: glycan array binding signal (z-score within array); higher = stronger binding
Details in all cases: glycan notation: IUPAC condensed, linker removed
[1] = biological target: Gal(b1-3)[Fuc(a1-4)]GlcNAc(b1-3)Gal(b1-3)[Fuc(a1-4)]GlcNAc
How it was run: (§1)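 Glycan array binding is given as a within-array Z-score, which can be read as non-binding when negative. The arrays, 3228 of them, came from the Consortium for Functional Glycomics database and were retained only where the protein sequence was available. Z-scores were averaged across arrays of the same protein sequence at different concentrations or buffers and across linkers.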

[2] = biological target: Gal(b1-3)[Fuc(a1-4)]GlcNAc(b1-3)Gal(b1-4)GlcNAc
How it was run: as §1

[3] = biological target: Gal(b1-3)[Fuc(a1-4)]GlcNAc(b1-3)Gal(b1-4)[Fuc(a1-3)]GlcNAc
How it was run: as §1

[4] = biological target: Gal(b1-3)[Fuc(a1-4)]GlcNAc(b1-6)GalNAc
How it was run: as §1

[5] = biological target: Gal(b1-3)[GlcNAc(b1-6)]GalNAc
How it was run: as §1

[6] = biological target: Gal(b1-3)[Neu5Ac(a2-6)]GalNAc
How it was run: as §1

[7] = biological target: Gal(b1-3)[Neu5Ac(a2-6)]GlcNAc(b1-4)Gal(b1-4)Glc
How it was run: as §1

[8] = biological target: Gal(b1-3)[Neu5Ac(a2-6)]GlcNAc(b1-6)Gal(b1-4)Glc
How it was run: as §1

[9] = biological target: Gal(b1-3)[Neu5Ac(b2-6)]GalNAc
How it was run: as §1

Gal(b1-4)Gal = biological target: Gal(b1-4)Gal
How it was run: as §1

[10] = biological target: Gal(b1-4)GalNAc(a1-3)[Fuc(a1-2)]Gal(b1-4)GlcNAc
How it was run: as §1

[11] = biological target: Gal(b1-4)GalNAc(b1-3)[Fuc(a1-2)]Gal(b1-4)GlcNAc
How it was run: as §1

Gal(b1-4)Glc = biological target: Gal(b1-4)Glc
How it was run: as §1

Gal(b1-4)Glc6S = biological target: Gal(b1-4)Glc6S
How it was run: as §1

Gal(b1-4)GlcNAc = biological target: Gal(b1-4)GlcNAc
How it was run: as §1

[12] = biological target: Gal(b1-4)GlcNAc(a1-6)Gal(b1-4)GlcNAc
How it was run: as §1

Gal(b1-4)GlcNAc(b1-2)Man = biological target: Gal(b1-4)GlcNAc(b1-2)Man
How it was run: as §1

[13] = biological target: Gal(b1-4)GlcNAc(b1-2)Man(a1-3)Man(b1-4)GlcNAc(b1-4)GlcNAc
How it was run: as §1

[14] = biological target: Gal(b1-4)GlcNAc(b1-2)Man(a1-3)[Gal(b1-4)GlcNAc(b1-2)Man(a1-6)]Man(b1-4)GlcNAc(b1-4)GlcNAc
How it was run: as §1

[15] = biological target: Gal(b1-4)GlcNAc(b1-2)Man(a1-3)[Gal(b1-4)GlcNAc(b1-2)Man(a1-6)]Man(b1-4)GlcNAc(b1-4)[Fuc(a1-6)]GlcNAc
How it was run: as §1

[16] = biological target: Gal(b1-4)GlcNAc(b1-2)Man(a1-3)[Gal(b1-4)GlcNAc(b1-2)Man(a1-6)][Gal(b1-4)GlcNAc(b1-4)]Man(b1-4)GlcNAc(b1-4)[Fuc(a1-6)]GlcNAc
How it was run: as §1

[17] = biological target: Gal(b1-4)GlcNAc(b1-2)Man(a1-3)[Gal(b1-4)GlcNAc(b1-2)Man(a1-6)][GlcNAc(b1-4)]Man(b1-4)GlcNAc(b1-4)[Fuc(a1-6)]GlcNAc
How it was run: as §1

[18] = biological target: Gal(b1-4)GlcNAc(b1-2)Man(a1-3)[Gal(b1-4)GlcNAc(b1-2)][GlcNAc(b1-4)]Man(b1-4)GlcNAc(b1-4)GlcNAc
How it was run: as §1

[19] = biological target: Gal(b1-4)GlcNAc(b1-2)Man(a1-3)[GlcNAc(b1-2)Man(a1-6)]Man(b1-4)GlcNAc(b1-4)GlcNAc
How it was run: as §1

[20] = biological target: Gal(b1-4)GlcNAc(b1-2)Man(a1-3)[GlcNAc(b1-4)][Gal(b1-4)GlcNAc(b1-2)Man(a1-6)]Man(b1-4)GlcNAc(b1-4)GlcNAc
How it was run: as §1

[21] = biological target: Gal(b1-4)GlcNAc(b1-2)Man(a1-3)[Man(a1-6)]Man(b1-4)GlcNAc(b1-4)GlcNAc
How it was run: as §1

[22] = biological target: Gal(b1-4)GlcNAc(b1-2)Man(a1-6)Man(b1-4)GlcNAc(b1-4)GlcNAc
How it was run: as §1

[23] = biological target: Gal(b1-4)GlcNAc(b1-2)Man(a1-6)[GlcNAc(b1-2)Man(a1-3)]Man(b1-4)GlcNAc(b1-4)GlcNAc
How it was run: as §1

[24] = biological target: Gal(b1-4)GlcNAc(b1-2)Man(a1-6)[Man(a1-3)]Man(b1-4)GlcNAc(b1-4)GlcNAc
How it was run: as §1

[25] = biological target: Gal(b1-4)GlcNAc(b1-2)[Gal(b1-4)GlcNAc(b1-4)]Man(a1-3)[Gal(b1-4)GlcNAc(b1-2)Man(a1-6)]Man(b1-4)GlcNAc(b1-4)GlcNAc
How it was run: as §1

[26] = biological target: Gal(b1-4)GlcNAc(b1-2)[Gal(b1-4)GlcNAc(b1-4)]Man(a1-3)[Gal(b1-4)GlcNAc(b1-2)[Gal(b1-4)GlcNAc(b1-6)]Man(a1-6)]Man(b1-4)GlcNAc(b1-4)GlcNAc
How it was run: as §1

[27] = biological target: Gal(b1-4)GlcNAc(b1-2)[Gal(b1-4)GlcNAc(b1-4)]Man(a1-3)[GlcNAc(b1-4)][Gal(b1-4)GlcNAc(b1-2)Man(a1-6)]Man(b1-4)GlcNAc(b1-4)GlcNAc
How it was run: as §1

[28] = biological target: Gal(b1-4)GlcNAc(b1-2)[Gal(b1-4)GlcNAc(b1-4)]Man(a1-3)[GlcNAc(b1-4)][Gal(b1-4)GlcNAc(b1-2)[Gal(b1-4)GlcNAc(b1-6)]Man(a1-6)]Man(b1-4)GlcNAc(b1-4)GlcNAc
How it was run: as §1

[29] = biological target: Gal(b1-4)GlcNAc(b1-2)[Gal(b1-4)GlcNAc(b1-6)]Man(a1-6)[Gal(b1-4)GlcNAc(b1-2)Man(a1-3)]Man(b1-4)GlcNAc(b1-4)GlcNAc
How it was run: as §1

[30] = biological target: Gal(b1-4)GlcNAc(b1-2)[Gal(b1-4)GlcNAc(b1-6)]Man(a1-6)[Gal(b1-4)GlcNAc(b1-2)Man(a1-3)]Man(b1-4)GlcNAc(b1-4)[Fuc(a1-6)]GlcNAc
How it was run: as §1

[31] = biological target: Gal(b1-4)GlcNAc(b1-2)[Gal(b1-4)GlcNAc(b1-6)]Man(a1-6)[GlcNAc(b1-4)][Gal(b1-4)GlcNAc(b1-2)Man(a1-3)]Man(b1-4)GlcNAc(b1-4)GlcNAc
How it was run: as §1

[32] = biological target: Gal(b1-4)GlcNAc(b1-2)[Gal(b1-4)GlcNAc(b1-6)]Man(a1-6)[GlcNAc(b1-4)][Gal(b1-4)GlcNAc(b1-2)[Gal(b1-4)GlcNAc(b1-4)]Man(a1-3)]Man(b1-4)GlcNAc(b1-4)[Fuc(a1-6)]GlcNAc
How it was run: as §1

B1: CRT-1 (Homo sapiens), P27797 (protein)
chain: MLLSVPLLLGLLGLAVAEPAVYFKEQFLDGDGWTSRWIESKHKSDFGKFVLSSGKFYGDEEKDKGLQTSQDARFYALSASFEPFSNKGQTLVVQFTVKHEQNIDCGGGYVKLFPNSLDQTDMHGDSEYNIMFGPDICGPGTKKVHVIFNYKGKNVLINKDIRCKDDEFTHLYTLIVRPDNTYEVKIDNSQVESGSLEDDWDFLPPKKIKDPDASKPEDWDERAKIDDPTDSKPEDWDKPEHIPDPDAKKPEDWDEEMDGEWEPPVIQNPEYKGEWKPRQIDNPDYKGTWIHPEIDNPEYSPDPSIYAYDNFGVLGLDLWQVKSGTIFDNFLITNDEAYAEEFGNETWGVTKAAEKQMKDKQDEEQRLKEEEEDKKRKEEEEAEDKEDDEDKDEDEEDEEDKEEDEEEDVPGQAKDEL
glycan array binding signal (z-score) [1]: -0.24
glycan array binding signal (z-score) [2]: -0.382
glycan array binding signal (z-score) [3]: -0.211
glycan array binding signal (z-score) [4]: 0.703
glycan array binding signal (z-score) [5]: -0.047
glycan array binding signal (z-score) [6]: -0.598
glycan array binding signal (z-score) [7]: -0.561
glycan array binding signal (z-score) [8]: -0.579
glycan array binding signal (z-score) [9]: -0.892
glycan array binding signal (z-score) (Gal(b1-4)Gal): -0.253
glycan array binding signal (z-score) [10]: -0.411
glycan array binding signal (z-score) [11]: -0.82
glycan array binding signal (z-score) (Gal(b1-4)Glc): -0.057
glycan array binding signal (z-score) (Gal(b1-4)Glc6S): 0.043
glycan array binding signal (z-score) (Gal(b1-4)GlcNAc): -0.282
glycan array binding signal (z-score) [12]: -0.824
glycan array binding signal (z-score) (Gal(b1-4)GlcNAc(b1-2)Man): 0.889
glycan array binding signal (z-score) [13]: 0.219
glycan array binding signal (z-score) [14]: -0.484
glycan array binding signal (z-score) [15]: 0.619
glycan array binding signal (z-score) [16]: -1.18
glycan array binding signal (z-score) [17]: -0.334
glycan array binding signal (z-score) [18]: -0.145
glycan array binding signal (z-score) [19]: -0.836
glycan array binding signal (z-score) [20]: -0.436
glycan array binding signal (z-score) [21]: -0.277
glycan array binding signal (z-score) [22]: 0.186
glycan array binding signal (z-score) [23]: -0.101
glycan array binding signal (z-score) [24]: 0.275
glycan array binding signal (z-score) [25]: 0.215
glycan array binding signal (z-score) [26]: 0.003
glycan array binding signal (z-score) [27]: -0.448
glycan array binding signal (z-score) [28]: 0.102
glycan array binding signal (z-score) [29]: -0.519
glycan array binding signal (z-score) [30]: -0.49
glycan array binding signal (z-score) [31]: -0.231
glycan array binding signal (z-score) [32]: -0.451
